# Results published in PubChem BioAssay AID504834 (National Center for Advancing Translational Sciences (NCATS), 2011).
# Hit rate of the full screen: of about 320,000 compounds, about 22,000 (6.9%) were called active. Inconclusive means that the source gave no clear call. Such entries were picked first, then a sample of the others. The call rests on the fitted dose curve; in most records, active means well fitted inhibition curve with a large enough effect; inconclusive means small, poorly fitted or top-dose-only effect, or another doubt; inactive means no such curve, though single readings can be large or run the other way. A potency beside an inconclusive call is a rough fit, not a confirmed value.
# Assay: Primary qHTS for delayed death inhibitors of the malarial parasite plastid, 96 hour incubation
# Settings: P. falciparum luciferase reporter growth; series mostly up to 28.7 µM; activity change, negative = inhibition: at the top concentration
# Summary of the method: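 P. falciparum expressing integrated firefly luciferase, in erythrocytes at 2% hematocrit, 0.05% parasitemia, incubated with compounds 96 h at 37 C, 5% CO2. Growth inhibition read as loss of luminescence; two-generation exposure targets delayed-death apicoplast inhibitors.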
# On the % scale 0 is the no-effect control and ±100 the full control effect; potency means the concentration at half of the fitted maximal effect.
SMILES,Potency,"activity change, negative = inhibition"
O=C(NCc1cccnc1)C1CC(c2ccccc2O)=NO1 (stereo unspecified),"inconclusive: 10.4 µM [inhibitor, single point]",
CNC(=S)N/N=C/c1cn(CCOc2cccc(OC)c2)c2ccccc12,"inconclusive: 10.4 µM [inhibitor, single point]",
Cn1cc([N+](=O)[O-])c(C(=O)NC2CCCCCC2)n1,"inconclusive: 11.7 µM [inhibitor, partial curve, poor fit]",
COc1ccc2c(c1)-c1ccccc1S(=O)(=O)N2C(C)=O,active: 11.7 µM,
O=C(NCC(=O)N1CCN(c2ccccn2)CC1)c1ccc(Br)o1,,inactive: 9.7%
Cc1cc(C)cc(-n2c(SCC(=O)NCc3ccc4c(c3)OCO4)nc3ccccc3c2=O)c1,"inconclusive: 14.7 µM [inhibitor, single point]",
CCn1c(SCC(=O)Nc2cccc(S(=O)(=O)N(C)c3ccccc3)c2)nnc1C1CC1,"inconclusive: 18.5 µM [inhibitor, single point]",
Nc1nonc1-n1nnc(C(=O)N/N=C/c2ccc(Cl)cc2)c1-c1ccc2c(c1)OCO2,active: 0.0657 µM,
CC1(C)OC[C@@H]2O[C@@]3(C(=O)O)OC(C)(C)O[C@@H]3[C@@H]2O1,,inactive: -13.5%
COc1ccc(CNCCC(c2ccc(OC(C)C)cc2)c2ccccc2OC)cc1OC (stereo unspecified),"inconclusive: 10.4 µM [inhibitor, single point]",
CCCc1c(C(=O)N/N=C/c2cccs2)nnn1-c1nonc1N,,inactive: 16.9%
O=C(CC1NCCN(Cc2ccccc2)C1=O)Nc1ccccc1 (stereo unspecified),,inactive: 38.5%
O=C(Cn1ncn2c(cc3sccc32)c1=O)NC1CCCC1,active: 8.28 µM,
CN(C)C(Cc1ccc(C#N)cc1)C(=O)c1ccccc1 (stereo unspecified),,inactive: 15.5%
COc1ccc(N=Nc2ccc(O)c3ncccc23)cc1,active: 0.522 µM,
COCCCNC(=O)CN(c1ccc(OC)cc1)S(=O)(=O)c1ccc(NC(C)=O)cc1,"inconclusive: 18.5 µM [inhibitor, single point]",
CCN(CC)S(=O)(=O)c1cc(NC(=O)C(CC(C)C)NC(N)=O)ccc1C (stereo unspecified),,inactive: 33.4% [at 5.75 µM]
COc1ccc(CN2C(=O)c3cccnc3C2=O)cc1S(=O)(=O)N1CCOc2ccc(C)cc21,"inconclusive: 18.5 µM [inhibitor, single point]",
Cc1ccc(C)c(NC(=O)CCc2c(C)nn(-c3ccc(N4CCCCC4)nn3)c2C)c1,"inconclusive: 11.7 µM [inhibitor, single point]",
CN(C)S(=O)(=O)c1ccc(C(=O)NCCc2ccco2)cc1,,inactive: 74.4%
CCOC(=O)c1cc(-c2ccncc2)nc2c1c(C)nn2-c1ccccn1,active: 13.1 µM,

# Three structures from above, sorted by heavy-atom count, ascending.
SMILES,Potency,"activity change, negative = inhibition"
CC1(C)OC[C@@H]2O[C@@]3(C(=O)O)OC(C)(C)O[C@@H]3[C@@H]2O1,,inactive: -13.5%
O=C(NCc1cccnc1)C1CC(c2ccccc2O)=NO1 (stereo unspecified),"inconclusive: 10.4 µM [inhibitor, single point]",
CCn1c(SCC(=O)Nc2cccc(S(=O)(=O)N(C)c3ccccc3)c2)nnc1C1CC1,"inconclusive: 18.5 µM [inhibitor, single point]",
